We go through one molecule from PMC7525442.

Amino acid sequences for entries named in this document (tags omitted).
UniProt P17931: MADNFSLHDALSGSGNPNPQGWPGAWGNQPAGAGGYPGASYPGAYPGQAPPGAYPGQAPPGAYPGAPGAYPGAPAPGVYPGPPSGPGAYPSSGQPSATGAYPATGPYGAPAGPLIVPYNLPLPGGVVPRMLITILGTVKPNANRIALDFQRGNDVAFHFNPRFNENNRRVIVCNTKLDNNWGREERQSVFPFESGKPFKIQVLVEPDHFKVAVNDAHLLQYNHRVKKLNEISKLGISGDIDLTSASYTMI

The target in this assay is galectin-3 (human (endogenous in PLC/PRF/5)) (UniProt P17931). The assay can be described thus: co-IP; PLC/PRF/5 cells incubated with or without 3 µg/ml M2BPGi for 12 h and lysed with 1% Triton-X; 300 µg lysate protein with galectin-3 antibody for 2 h at 4 °C, then protein G beads; 5 washes; western blot for M2BP; only the binder purified.

No constants are given. Whether binding was seen depends on the method and setting. Binding seen in cells or lysates may run through a third protein. Some binding calls cover weakened binding; strength is not graded here.

B1: Mac-2-binding protein glycan isomer (Wisteria floribunda agglutinin-positive Mac-2-binding protein) (protein, UniProt Q08380 19-585)
chain: VNDGDMRLADGGATNQGRVEIFYRGQWGTVCDNLWDLTDASVVCRALGFENATQALGRAAFGQGSGPIMLDEVQCTGTEASLADCKSLGWLKSNCRHERDAGVVCTNETRSTHTLDLSRELSEALGQIFDSQRGCDLSISVNVQGEDALGFCGHTVILTANLEAQALWKEPGSNVTMSVDAECVPMVRDLLRYFYSRRIDITLSSVKCFHKLASAYGARQLQGYCASLFAILLPQDPSFQMPLDLYAYAVATGDALLEKLCLQFLAWNFEALTQAEAWPSVPTDLLQLLLPRSDLAVPSELALLKAVDTWSWGERASHEEVEGLVEKIRFPMMLPEELFELQFNLSLYWSHEALFQKKTLQALEFHTVPFQLLARYKGLNLTEDTYKPRIYTSPTWSAFVTDSSWSARKSQLVYQSRRGPLVKYSSDYFQAPSDYRYYPYQSFQTPQHPSFLFQDKRVSWSLVYLPTIQSCWNYGFSCSSDELPVLGLTKSGGSDRTIAYENKALMLCEGLFVADVTDFEGWKAAIPSALDTNSSKSTSSFPCPAGHFNGFRTVIRPFYLTNSSGVD
modifications: glycosylation at N-linked sites (85–97 kDa form); WFA-binding glycoform
As to B1, the binding entry is on record as “binds”.
